Results: publication PMC10912431

Molecular target: T1, glutathione S-transferase mu 3 (GSTM3), Flag-labelled (UniProt P21266)
T1 sequence: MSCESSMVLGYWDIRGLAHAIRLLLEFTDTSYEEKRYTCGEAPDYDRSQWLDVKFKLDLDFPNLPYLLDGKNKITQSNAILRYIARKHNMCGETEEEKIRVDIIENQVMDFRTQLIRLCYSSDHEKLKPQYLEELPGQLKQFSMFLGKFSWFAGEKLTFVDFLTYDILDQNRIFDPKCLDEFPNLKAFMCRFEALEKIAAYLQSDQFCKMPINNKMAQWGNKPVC
Assay: co-IP; cells transfected with Flag-labelled plasmids, lysed in IP cell lysis buffer at 4 °C; anti-Flag antibody overnight at 4 °C, protein A/G agarose beads 4 h, three PBS washes, western blot

**Q.** With “glutathione peroxidase 4 (GPX4) (human (endogenous in NPC cell lines))” as the substance, how does the binding read?
**A.** binds

These are yes or no findings as the source states them, for the method shown. In cells and extracts the contact can be indirect. Binding calls can cover weak binding; strength is not graded here. Where a sequence is shown, tags or fusion partners need not be part of it.
